In this assay the target is T1, Stag1 (mouse (endogenous in E14 ES cells)) (UniProt Q9D3E6).
T1 sequence: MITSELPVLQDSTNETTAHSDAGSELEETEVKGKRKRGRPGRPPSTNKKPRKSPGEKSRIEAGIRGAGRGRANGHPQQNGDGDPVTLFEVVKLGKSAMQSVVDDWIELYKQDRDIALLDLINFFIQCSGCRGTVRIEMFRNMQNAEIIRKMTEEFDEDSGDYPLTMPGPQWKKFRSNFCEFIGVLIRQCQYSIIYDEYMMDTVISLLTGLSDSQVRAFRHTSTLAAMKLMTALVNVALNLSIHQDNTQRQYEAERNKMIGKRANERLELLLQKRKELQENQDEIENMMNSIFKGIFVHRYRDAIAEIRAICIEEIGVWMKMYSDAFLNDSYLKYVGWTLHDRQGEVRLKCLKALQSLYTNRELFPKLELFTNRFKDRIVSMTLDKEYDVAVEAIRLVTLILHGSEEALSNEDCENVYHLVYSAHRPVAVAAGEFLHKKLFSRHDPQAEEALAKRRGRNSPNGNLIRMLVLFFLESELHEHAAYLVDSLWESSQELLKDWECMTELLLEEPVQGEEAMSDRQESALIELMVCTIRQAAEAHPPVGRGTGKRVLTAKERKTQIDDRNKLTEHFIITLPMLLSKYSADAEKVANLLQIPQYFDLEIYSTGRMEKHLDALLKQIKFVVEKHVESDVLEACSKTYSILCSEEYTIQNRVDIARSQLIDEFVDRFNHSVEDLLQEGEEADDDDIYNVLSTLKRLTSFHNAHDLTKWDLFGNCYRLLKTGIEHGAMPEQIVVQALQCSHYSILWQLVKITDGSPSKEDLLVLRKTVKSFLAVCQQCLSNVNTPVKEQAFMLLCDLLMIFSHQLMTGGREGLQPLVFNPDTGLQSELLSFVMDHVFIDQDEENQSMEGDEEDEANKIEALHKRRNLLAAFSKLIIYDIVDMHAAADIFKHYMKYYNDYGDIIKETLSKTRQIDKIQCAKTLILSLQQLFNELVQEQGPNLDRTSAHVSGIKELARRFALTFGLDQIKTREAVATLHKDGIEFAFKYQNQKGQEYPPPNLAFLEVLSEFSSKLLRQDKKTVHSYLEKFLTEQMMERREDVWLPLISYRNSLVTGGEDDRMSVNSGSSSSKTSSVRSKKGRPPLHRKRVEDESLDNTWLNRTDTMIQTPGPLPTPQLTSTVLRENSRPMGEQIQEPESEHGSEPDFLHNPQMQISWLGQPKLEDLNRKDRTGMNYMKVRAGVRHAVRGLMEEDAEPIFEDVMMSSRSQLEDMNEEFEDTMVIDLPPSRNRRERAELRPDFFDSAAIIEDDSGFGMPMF
The assay is described as follows: co-IP.

Chains of the proteins cited; added tags and fusions are not shown.
UniProt Q61686: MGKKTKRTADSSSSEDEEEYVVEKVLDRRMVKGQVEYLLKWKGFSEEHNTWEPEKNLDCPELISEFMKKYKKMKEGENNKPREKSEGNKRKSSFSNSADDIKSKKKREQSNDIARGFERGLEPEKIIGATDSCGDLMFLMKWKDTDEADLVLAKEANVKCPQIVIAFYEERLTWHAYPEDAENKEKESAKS
UniProt P09405: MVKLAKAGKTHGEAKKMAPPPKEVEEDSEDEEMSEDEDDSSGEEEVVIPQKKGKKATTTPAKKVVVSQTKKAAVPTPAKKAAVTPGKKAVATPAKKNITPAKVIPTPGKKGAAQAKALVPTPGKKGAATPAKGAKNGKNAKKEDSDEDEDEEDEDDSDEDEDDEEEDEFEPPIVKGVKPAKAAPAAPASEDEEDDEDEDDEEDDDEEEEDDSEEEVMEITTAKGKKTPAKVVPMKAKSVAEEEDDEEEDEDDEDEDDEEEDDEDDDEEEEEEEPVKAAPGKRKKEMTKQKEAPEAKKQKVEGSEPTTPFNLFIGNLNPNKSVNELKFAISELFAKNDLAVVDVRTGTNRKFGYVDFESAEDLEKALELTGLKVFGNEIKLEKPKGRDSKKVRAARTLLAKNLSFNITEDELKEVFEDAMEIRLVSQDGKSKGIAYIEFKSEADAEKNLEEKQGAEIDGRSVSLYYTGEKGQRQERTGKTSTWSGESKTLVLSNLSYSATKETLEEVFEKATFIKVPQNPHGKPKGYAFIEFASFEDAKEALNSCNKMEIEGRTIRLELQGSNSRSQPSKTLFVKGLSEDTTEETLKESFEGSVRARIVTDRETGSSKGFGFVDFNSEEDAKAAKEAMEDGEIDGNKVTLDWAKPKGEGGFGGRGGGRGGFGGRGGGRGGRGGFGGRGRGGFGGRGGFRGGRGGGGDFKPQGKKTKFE

The record followed here is publication doi:10.1101/2021.02.14.429938.

Results are given in words; binding and its absence hold for the method and conditions named. Binding seen in cells or lysates may run through a third protein. Some entries that bind do so weakly or less than the wild type. Sequences can lack the tags named with a protein.

On to “Heterochromatin Protein 1 alpha (from UniProt Q61686 1-191)”, for which the binding result is given as “binds”.
Next, Nucleolin (from UniProt P09405 1-707): “binds”.
